Measured values: PubChem BioAssay AID2685 (National Center for Advancing Translational Sciences (NCATS), 2010)
Among all 320,000 compounds or so, about 2,100 (0.66%) were called active. Calls come from the whole dose curve; as a rule, active = well fitted inhibition curve with a large enough effect in the signal ratio, with a control signal flat (not every such curve was filed as active); inconclusive = small, poorly fitted or top-dose-only effect, or effect the other way, or a change in a side signal; inactive = flat fitted curve, though single readings scatter; the % refers to the signal ratio. Inconclusive means that the source gave no clear call. Where the call is inconclusive, the potency comes from a doubtful curve fit.

Test: qHTS Assay for Lipid Storage Modulators in Drosophila S3 Cells
Details: BODIPY lipid droplet fluorescence, 18-24 h, cells fed with added oleic acid; lipid storage change, negative = inhibition: at 46.1 µM (top of the series) unless noted
Procedure, shortened: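 Drosophila S3 cells got compounds at several concentrations plus oleic acid (400 uM solution). Laser-scanning cytometry with 488 nm excitation read lipid droplets at 500-530 nm and cells at 575-640 nm. Percent activity was relative to 20 uM Triacsin C.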
% is set by controls: 0 for no effect and ±100 for the full control effect; potency is the fitted concentration of half-maximal effect.

Lipid storage change, negative = inhibition, inconclusive:
COc1cccc(NC(=O)CN2C(=O)NC3(CCCc4ccccc43)C2=O)c1 (stereo not given) -20.4%
Cc1ccc2nc(NC(=S)NC(=O)c3cccs3)sc2c1 30.6%
CCOP(=O)(OCC)c1nc(-c2cccc3ccccc23)oc1NCc1ccc(OC)cc1 3.5%
O=S(=O)(NN=C1CCCCCC1)c1ccccc1 -23.7%
Cc1ccc(C(=O)Nc2cccc(N(C)S(C)(=O)=O)c2)cc1S(=O)(=O)Nc1ccccc1 298%
COc1ccc(CN(CC(=O)NC(C)C)C(=O)CCC(=O)Nc2nccs2)cc1 72.1%
Cc1ccccc1NC(=S)c1ccc2ccccc2n1 -100%
CCOC(=O)c1c(C)[nH]c(C)c1C(=O)COC(=O)/C=C/c1ccc(Cl)cc1 9.59%
N#Cc1cnn(-c2nc(SCc3ccccc3)nc3sc4c(c23)CCCC4)c1N -47.8%
COC(=O)c1ccc(NC(=O)CN(c2ccc(C)cc2)S(=O)(=O)c2c(C)nn(C)c2C)cc1 -7.72%
CC(C)[C@H](Nc1ncnc2c1oc1ccccc12)C(=O)O -10.3%

Potency, inconclusive:
CCOC(=O)c1cc(-c2ccc(C)o2)nn1CCC#N 14.6 µM [activator, partial curve]
CCOc1cc(NC(=S)NCCCN2CCOCC2)c(OCC)cc1NC(=O)c1cccc(F)c1 23.1 µM [activator, single point]
CCOC(=O)c1c(C)[nH]c(C(=O)OCC(=O)Nc2ccc(OC)c(Cl)c2)c1C 5.17 µM [activator, full curve]
c1ccc(CNCc2ccco2)cc1 29.1 µM [activator, single point]
Nc1ccc(Sc2nnnn2-c2ccccc2)c(Cl)c1 14.6 µM [activator, partial curve]
Cc1ccc(C(=O)NCC(=O)OCC(=O)NC(C)C2CC3CCC2C3)cc1 (stereo not given) 0.92 µM [activator, full curve]
CCOc1ccc(CN2CCNC(=O)C2CC(=O)NCc2csc(C(C)C)n2)cc1 (stereo not given) 29.1 µM [falling, single point]
N=C1/C(=C\c2ccc(Br)o2)C(=O)N=C2SC(CC(=O)N3CCCCC3)=NN12 6.51 µM [falling, single point]
CCc1nnc(NS(=O)(=O)c2ccc(NC(=O)c3ccc(Br)cc3)cc2)s1 29.1 µM [activator, partial curve, poor fit]

Random excerpt: 2 entries already listed, in no set order.
Potency, inconclusive:
Nc1ccc(Sc2nnnn2-c2ccccc2)c(Cl)c1 14.6 µM [activator, partial curve]
CCOc1ccc(CN2CCNC(=O)C2CC(=O)NCc2csc(C(C)C)n2)cc1 (stereo not given) 29.1 µM [falling, single point]
